Source: PubChem BioAssay AID1259264 (Sanger Institute, 2017)
Shown is an unselected part of 794 reagents tested. 15 of them (1.9%) count as active. 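Calls rest on knock-down alone at z-score below -3; synergy scores with the three drugs do not decide them.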 Unmarked entries are inactive. Viability is capped at 1. Further read-outs or replicates are left out here. No sequences are given here. Not given: the amount of reagent, the time to read-out.

- Test: 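Kinase-wide knock-down to find genes that strengthen targeted drug effects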 (primary screen)
- System: CL40 human colorectal cancer cells
- Reagents: siRNA pool against human genes
- Conditions: DMSO, or an anchor drug: BYL719 at 1 µM, cetuximab at 5 µg/ml, or trametinib at 10 nM
- Measured: 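Replicate-mean viability versus a non-targeting pool, robust z-score from control wells, and mean synergy with BYL719 1 µM, cetuximab 5 µg/ml or trametinib 10 nM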
- Reading the numbers: robust z-score, siRNA alone and viability, siRNA alone: higher = more viable cells
- Call rule: 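a gene counts as essential when knock-down without drug gives a robust z-score below -3, meaning fewer cells; synergy scores play no part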
- Meaning of the calls: active = essential (lowers viability alone); inactive = not essential

SGK3
- robust z-score, siRNA alone: 0.539
- viability, siRNA alone (fraction of control): 1

MAPK3
- robust z-score, siRNA alone: -0.675
- viability, siRNA alone (fraction of control): 0.913

EPHB3
- robust z-score, siRNA alone: 0.539
- viability, siRNA alone (fraction of control): 1

NME2
- robust z-score, siRNA alone: 0.396
- viability, siRNA alone (fraction of control): 0.99

KSR2
- robust z-score, siRNA alone: 0.323
- viability, siRNA alone (fraction of control): 0.985

PIK3C2B
- robust z-score, siRNA alone: 0.539
- viability, siRNA alone (fraction of control): 1

CHKA
- robust z-score, siRNA alone: -0.0895
- viability, siRNA alone (fraction of control): 0.955

BLK
- robust z-score, siRNA alone: 0.539
- viability, siRNA alone (fraction of control): 1

CDK2
- robust z-score, siRNA alone: 0.539
- viability, siRNA alone (fraction of control): 1

PIP5KL1
- robust z-score, siRNA alone: 0.539
- viability, siRNA alone (fraction of control): 1

SKAP1
- robust z-score, siRNA alone: 0.539
- viability, siRNA alone (fraction of control): 1

LIMK2
- robust z-score, siRNA alone: 0.539
- viability, siRNA alone (fraction of control): 1

EPHA10
- robust z-score, siRNA alone: -1.13
- viability, siRNA alone (fraction of control): 0.88

MET
- robust z-score, siRNA alone: -0.366
- viability, siRNA alone (fraction of control): 0.935

CDK12
- robust z-score, siRNA alone: 0.202
- viability, siRNA alone (fraction of control): 0.976

CDC7
- robust z-score, siRNA alone: 0.385
- viability, siRNA alone (fraction of control): 0.989

AKAP9
- robust z-score, siRNA alone: 0.539
- viability, siRNA alone (fraction of control): 1

NUP107
- robust z-score, siRNA alone: -9.47 (active)
- viability, siRNA alone (fraction of control): 0.282

DGKG
- robust z-score, siRNA alone: 0.539
- viability, siRNA alone (fraction of control): 1

PRKCB
- robust z-score, siRNA alone: 0.539
- viability, siRNA alone (fraction of control): 1

CDKL5
- robust z-score, siRNA alone: -0.698
- viability, siRNA alone (fraction of control): 0.911

BMPR1B
- robust z-score, siRNA alone: 0.539
- viability, siRNA alone (fraction of control): 1

NEK3
- robust z-score, siRNA alone: 0.539
- viability, siRNA alone (fraction of control): 1

ITPKB
- robust z-score, siRNA alone: -0.438
- viability, siRNA alone (fraction of control): 0.93

THNSL1
- robust z-score, siRNA alone: 0.539
- viability, siRNA alone (fraction of control): 1

CIT
- robust z-score, siRNA alone: -1.81
- viability, siRNA alone (fraction of control): 0.831

IKBKE
- robust z-score, siRNA alone: 0.539
- viability, siRNA alone (fraction of control): 1

AK1
- robust z-score, siRNA alone: -0.0697
- viability, siRNA alone (fraction of control): 0.956

Part of the list above, set out differently:
target gene,"robust z-score, siRNA alone","viability, siRNA alone (fraction of control)"
CDK2,0.539,1
PIP5KL1,0.539,1
SKAP1,0.539,1
